Laboratory results: PubChem BioAssay AID504784 (Drosophila RNAi Screening Center, 2011)
Assay: 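Fly genes whose silencing alters how much lipid cells keep in droplets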 (primary screen). Cell system: Drosophila Kc167 embryonic cells. Reagent: long dsRNA against Drosophila genes, about 250 ng dsRNA per well. Time to read-out: 4 days. Conditions: cells fed 400 µM oleic acid bound to BSA. Measurement: 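Microscope images give a droplet-to-nucleus area ratio, taken as log and converted to a screen-wide B-score; higher values mean greater lipid storage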. Reading the numbers: droplet/nuclear area B-score: higher = more stored lipid (overstorage).
The deposit covers about 17,000 reagents; this is a random part of those with a known target gene and a result. 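Each column is one replicate's B-score; the combined score over replicates was not deposited, so single values may mislead.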 A plus sign joins genes that one reagent is predicted to hit. Reagent sequences are not shown.

gene,amplicon,"droplet/nuclear area B-score, replicate 1","droplet/nuclear area B-score, replicate 2","droplet/nuclear area B-score, replicate 3"
Ptp52F (GeneID 36790),DRSC06717,-1.48,0.15,
Spn43Ab (GeneID 45040),DRSC06781,0.0634,0.771,
CG31207 (GeneID 326125),DRSC21886,-2.04,-1.37,
CG14054 (GeneID 31172),DRSC17909,-0.417,0.055,
hd (GeneID 40642),DRSC12316,-0.0959,-0.899,
l(2)SH0834 (GeneID 34386),DRSC02854,4.97,3.64,
Eig71Eb (GeneID 39701),DRSC11149,0.00547,-0.34,
CG13198 (GeneID 36245),DRSC06323,0.543,0.758,
CG43328 (GeneID 246625),DRSC05640,0.937,0.921,
Hsc70-4 (GeneID 41840),DRSC16711,1.2,6.26,
Jheh1 (GeneID 251984),DRSC06529,-0.0711,,
CG15601 (GeneID 32509),DRSC19670,-0.483,0.0972,
cocoon (GeneID 39665),DRSC10916,-0.973,-0.41,
Cyp4c3 (GeneID 43663),DRSC16631,-1.2,1.02,
Cpr73D (GeneID 39897),DRSC11084,-0.286,1.82,-1.2
Inx7 (GeneID 33027),DRSC18784,-0.879,0.747,
Arl5 (GeneID 38931),DRSC10785,1.14,-1.59,
CG12659 (GeneID 50403),DRSC17862,0.145,-1.86,
CG1092 (GeneID 40538),DRSC12151,0.899,-1.33,-0.327
CG6495 (GeneID 34486),DRSC01993,-2.81,1.16,
Tango10 (GeneID 32125),DRSC19807,-1.54,-0.797,-0.0785
mst (GeneID 33119),DRSC20582,-1.98,1.46,
CG10887 (GeneID 42399),DRSC14277,2.38,0.503,-0.221
CG31109 (GeneID 43001),DRSC14648,-0.746,-1.67,
CG1441 (GeneID 36029),DRSC06448,-1.26,-0.207,
CG16890 (GeneID 34781),DRSC01890,1.68,-0.00873,
CG15144 (GeneID 35063),DRSC02445,2.38,0.000502,
NANS (GeneID 41528),DRSC15743,-0.385,-0.401,
CG14500 (GeneID 37087),DRSC06471,-0.662,-0.671,
CG31495 (GeneID 261626),DRSC16762,-0.329,0.659,
Kap-alpha1 (GeneID 40160),DRSC11356,1.29,1.17,
CG31551 (GeneID 318795),DRSC12159,-2.32,0.919,-1.51
CG31551 (GeneID 318795),DRSC22403,-1.26,0.648,
Cyp4ac1 (GeneID 33754),DRSC03302,0.479,0.504,-1.51
CG4766 (GeneID 31533),DRSC17736,-0.0112,-0.371,
CG31510 (GeneID 326146),DRSC14182,-0.272,-0.00359,
spel1 (GeneID 34842),DRSC03617,-0.932,-3.22,
CG3842 (GeneID 31576),DRSC18326,-0.948,-0.222,
CG17198 + CG17197,DRSC15190,0.226,0.247,
CG17198 + CG17197,DRSC15191,1.63,-0.742,
CG11456 (GeneID 40309),DRSC11665,-0.464,-0.513,-0.852
CG11999 (GeneID 40637),DRSC12185,-0.0827,1.58,
Apc2 (GeneID 42871),DRSC14115,0.321,3.8,
Drep1 (GeneID 36290),DRSC07527,-0.836,-0.297,
CG30391 (GeneID 37423),DRSC21572,0.00388,-1.59,
Ssk (GeneID 40207),DRSC10756,0.097,-1.18,-0.206
CG8852 (GeneID 33577),DRSC00719,0.0391,-0.865,
Cyp309a2 (GeneID 33439),DRSC00526,1.18,0.166,
drd (GeneID 318102),DRSC19343,-0.0709,1.85,
drd (GeneID 318102),DRSC21466,-0.0384,-0.73,
CG9265 (GeneID 35369),DRSC03178,-0.324,-1.2,
CG9265 (GeneID 35369),DRSC03179,-1.29,-0.857,
yip7 (GeneID 38680),DRSC11410,1.58,1.44,
CG7320 (GeneID 40010),DRSC10810,-0.754,-1.1,
PCB (GeneID 36020),DRSC05939,-0.387,0.872,
Vml (GeneID 5740271),DRSC17695,0.274,-0.887,
Vml (GeneID 5740271),DRSC18529,0.0151,4.18,
ValRS (GeneID 45783),DRSC06864,0.0302,1.34,
CG31998 (GeneID 43774),DRSC17137,0.865,,
CG31998 (GeneID 43774),DRSC17138,0.422,-0.669,
Jon99Fii (GeneID 43621),DRSC15430,-0.665,0.805,
side-V (GeneID 37679),DRSC04188,-0.925,-1.45,-0.0838
side-V (GeneID 37679),DRSC04189,-0.0861,-0.254,
side-V (GeneID 37679),DRSC22266,0.0304,3.22,
mars (GeneID 36498),DRSC06656,-0.925,0.337,-0.704
Scgalpha (GeneID 34135),DRSC03076,-0.822,0.546,
CRIF (GeneID 40395),DRSC11811,3.34,3.85,
Jon65Ai (GeneID 38685),DRSC09731,-0.398,0.287,
Doc2 (GeneID 39038),DRSC22716,-1.53,-0.277,
Tehao (GeneID 34761),DRSC03449,0.987,-1.59,
IntS10 (GeneID 38444),DRSC08173,0.921,2.48,
Fdx1 (GeneID 39070),DRSC11167,2.64,1.08,
CG5001 (GeneID 33308),DRSC00673,0.225,-0.147,
CG16865 (GeneID 34788),DRSC01904,-0.353,-1.38,
CG8673 (GeneID 34105),DRSC03105,1.45,0.774,
pen-2 (GeneID 251430),DRSC05722,2.73,-0.674,
dome (GeneID 32976),DRSC19583,-1.51,0.633,
CG10185 (GeneID 41953),DRSC14205,0.408,-0.344,
CG11585 (GeneID 32365),DRSC19410,-0.602,-1.68,
EMC6 (GeneID 42992),DRSC14386,-1.04,1.01,
CG30177 (GeneID 246500),DRSC22680,-0.206,0.0199,
Rx (GeneID 37367),DRSC03837,2.3,-0.0341,
Rx (GeneID 37367),DRSC04652,-0.335,-0.155,
